Laboratory results taken from the supplement of paper PMC4635364.
Structures can show the parent of a compound that is named as a salt. Some of the results follow. Repeats in this data set agree poorly, so a single value says little.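 Cells: ReNCell VM human fetal ventral-midbrain neural progenitors, differentiated mitogen-free. Blinded raters compared doublecortin-stained (early neurons) or tyrosine hydroxylase-stained (dopaminergic neurons) images with untreated wells, where 0 means no change. After repeats and both raters were averaged, compounds scoring 2 or above became hits for retesting.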

How the values were obtained:
ReNCell VM [1] = assay: neuronal differentiation score (DCX+ cell fraction vs untreated, manual image score) (score (-3 to 3)); higher = more neuronal differentiation; conditions: 2 uM, 2 weeks
ReNCell VM [2] = assay: dopaminergic neuron differentiation score (TH+ cell fraction vs untreated, manual image score) (score (0 to 3)); higher = more TH+ dopaminergic neuron differentiation; conditions: 2 uM, 4 weeks, BDNF 10 ng/ml + GDNF 10 ng/ml

## N#C/C(=C\c1ccc(O)c(O)c1)C(=O)NCCCNC(=O)/C(C#N)=C/c1ccc(O)c(O)c1 [Tyrphostin AG 537]
ReNCell VM [1]; library: LOPAC
  neuronal differentiation score: inactive: 0
ReNCell VM [2]; library: LOPAC
  dopaminergic neuron differentiation score: inactive: 1

## Cc1cc(NS(=O)(=O)c2ccc(N)cc2)no1
ReNCell VM [1]; library: Spectrum
  neuronal differentiation score: inactive: 1
ReNCell VM [2]; library: Spectrum
  dopaminergic neuron differentiation score: inactive: 0

## COc1cc(NS(C)(=O)=O)ccc1Nc1c2ccccc2nc2ccccc12 [Amsacrine hydrochloride]
ReNCell VM [1]; library: LOPAC
  neuronal differentiation score: inactive: 0
ReNCell VM [2]; library: LOPAC
  dopaminergic neuron differentiation score: inactive: 0

## Cc1ccc(C(=O)Nc2ccc(S(=O)(=O)O)c3cc(S(=O)(=O)O)cc(S(=O)(=O)O)c23)cc1NC(=O)c1cccc(NC(=O)Nc2cccc(C(=O)Nc3cc(C(=O)Nc4ccc(S(=O)(=O)O)c5cc(S(=O)(=O)O)cc(S(=O)(=O)O)c45)ccc3C)c2)c1
ReNCell VM [1]; library: Spectrum
  neuronal differentiation score: inactive: 0
ReNCell VM [2]; library: Spectrum
  dopaminergic neuron differentiation score: inactive: 0

## CO[C@H]1/C=C/O[C@@]2(C)Oc3c(C)c(O)c4c(O)c(c5c(nc6cc(C)ccn65)c4c3C2=O)NC(=O)/C(C)=C\C=C\[C@H](C)[C@H](O)[C@@H](C)[C@@H](O)[C@@H](C)[C@H](OC(C)=O)[C@@H]1C [Rifaximin]
ReNCell VM [1]; library: Prestwick
  neuronal differentiation score: inactive: 0
ReNCell VM [2]; library: Prestwick
  dopaminergic neuron differentiation score: active: 3

## CC#CCOC(=O)C1=CCCN(C)C1 [Arecaidine but-2-ynyl ester tosylate]
ReNCell VM [1]; library: Tocriscreen
  neuronal differentiation score: inactive: 0
ReNCell VM [2]; library: Tocriscreen
  dopaminergic neuron differentiation score: inactive: 0

## COc1ccccc1N1CCN(CCN(C(=O)c2ccc(F)cc2)c2ccccn2)CC1 [p-MPPF dihydrochloride]
ReNCell VM [1]; library: LOPAC
  neuronal differentiation score: inactive: 0
ReNCell VM [2]; library: LOPAC
  dopaminergic neuron differentiation score: inactive: 0

## N[C@@H](Cc1ccc(O)c(I)c1)C(=O)O [3-Iodo-L-tyrosine]
ReNCell VM [1]; library: LOPAC
  neuronal differentiation score: inactive: 0
ReNCell VM [2]; library: LOPAC
  dopaminergic neuron differentiation score: inactive: 0

## OCCN1CCN(CC/C=C2/c3ccccc3Sc3ccc(C(F)(F)F)cc32)CC1 [cis-(Z)-Flupenthixol dihydrochloride]
ReNCell VM [1]; library: LOPAC
  neuronal differentiation score: inactive: 0
ReNCell VM [2]; library: LOPAC
  dopaminergic neuron differentiation score: inactive: 0

## Clc1cc(Cl)c(OCC#CI)cc1Cl [Haloprogin]
ReNCell VM [1]; library: Prestwick
  neuronal differentiation score: inactive: 0
ReNCell VM [2]; library: Prestwick
  dopaminergic neuron differentiation score: inactive: 0

## COc1cc(COc2cc(N)c(Cl)cc2C(=O)CCC2CCN(CCNS(C)(=O)=O)CC2)cc(OC)c1
ReNCell VM [1]; library: Tocriscreen
  neuronal differentiation score: inactive: 0
ReNCell VM [2]; library: Tocriscreen
  dopaminergic neuron differentiation score: inactive: 0

## O=C(O)CSCC(=O)NC1CCSC1=O (stereo not given)
ReNCell VM [1]; library: Spectrum
  neuronal differentiation score: inactive: 0
ReNCell VM [2]; library: Spectrum
  dopaminergic neuron differentiation score: inactive: 0

## O=C(O)/C=C/C=C/c1ccccc1
ReNCell VM [1]; library: Spectrum
  neuronal differentiation score: inactive: 0
ReNCell VM [2]; library: Spectrum
  dopaminergic neuron differentiation score: inactive: 0

## CC(=O)Oc1cccc(O)c1
ReNCell VM [1]; library: Spectrum
  neuronal differentiation score: inactive: 0
ReNCell VM [2]; library: Spectrum
  dopaminergic neuron differentiation score: active: 2

## NS(=O)(=O)c1cc2c(cc1Cl)NC(C(Cl)Cl)NS2(=O)=O (stereo not given)
ReNCell VM [1]; library: Spectrum
  neuronal differentiation score: inactive: 0
ReNCell VM [2]; library: Spectrum
  dopaminergic neuron differentiation score: inactive: 0

## CN(C)c1cc(NC(=O)CNC(C)(C)C)c(O)c2c1C[C@H]1C[C@H]3[C@H](N(C)C)C(O)=C(C(N)=O)C(=O)[C@@]3(O)C(O)=C1C2=O
ReNCell VM [1]; library: Spectrum
  neuronal differentiation score: inactive: 0
ReNCell VM [2]; library: Spectrum
  dopaminergic neuron differentiation score: inactive: 0

## C[C@H](NC(=O)/C(C#N)=C/c1ccc(O)c(O)c1)c1ccccc1 [Tyrphostin B44, (+) enantiomer]
ReNCell VM [1]; library: Tocriscreen
  neuronal differentiation score: inactive: 0
ReNCell VM [2]; library: Tocriscreen
  dopaminergic neuron differentiation score: active: 3

## CC1=C(/C=C/C(C)=C/C=C/C(C)=C/C(=O)Nc2ccc(O)cc2)C(C)(C)CCC1 [Retinoic acid p-hydroxyanilide]
ReNCell VM [1]; library: LOPAC
  neuronal differentiation score: inactive: 0
ReNCell VM [2]; library: LOPAC
  dopaminergic neuron differentiation score: inactive: 0

## COc1cc(O)c(C)c(O)c1
ReNCell VM [1]; library: Spectrum
  neuronal differentiation score: inactive: 0
ReNCell VM [2]; library: Spectrum
  dopaminergic neuron differentiation score: inactive: 0

## CC(C)(C#N)c1cc(Cn2cncn2)cc(C(C)(C)C#N)c1 [Anastrozole]
ReNCell VM [1]; library: Prestwick
  neuronal differentiation score: inactive: 0
ReNCell VM [2]; library: Prestwick
  dopaminergic neuron differentiation score: inactive: 0
